Drawing on article PMC12551717, this text covers binding for 1 substance.

Chains of the proteins cited; added tags and fusions are not shown.
UniProt P33176: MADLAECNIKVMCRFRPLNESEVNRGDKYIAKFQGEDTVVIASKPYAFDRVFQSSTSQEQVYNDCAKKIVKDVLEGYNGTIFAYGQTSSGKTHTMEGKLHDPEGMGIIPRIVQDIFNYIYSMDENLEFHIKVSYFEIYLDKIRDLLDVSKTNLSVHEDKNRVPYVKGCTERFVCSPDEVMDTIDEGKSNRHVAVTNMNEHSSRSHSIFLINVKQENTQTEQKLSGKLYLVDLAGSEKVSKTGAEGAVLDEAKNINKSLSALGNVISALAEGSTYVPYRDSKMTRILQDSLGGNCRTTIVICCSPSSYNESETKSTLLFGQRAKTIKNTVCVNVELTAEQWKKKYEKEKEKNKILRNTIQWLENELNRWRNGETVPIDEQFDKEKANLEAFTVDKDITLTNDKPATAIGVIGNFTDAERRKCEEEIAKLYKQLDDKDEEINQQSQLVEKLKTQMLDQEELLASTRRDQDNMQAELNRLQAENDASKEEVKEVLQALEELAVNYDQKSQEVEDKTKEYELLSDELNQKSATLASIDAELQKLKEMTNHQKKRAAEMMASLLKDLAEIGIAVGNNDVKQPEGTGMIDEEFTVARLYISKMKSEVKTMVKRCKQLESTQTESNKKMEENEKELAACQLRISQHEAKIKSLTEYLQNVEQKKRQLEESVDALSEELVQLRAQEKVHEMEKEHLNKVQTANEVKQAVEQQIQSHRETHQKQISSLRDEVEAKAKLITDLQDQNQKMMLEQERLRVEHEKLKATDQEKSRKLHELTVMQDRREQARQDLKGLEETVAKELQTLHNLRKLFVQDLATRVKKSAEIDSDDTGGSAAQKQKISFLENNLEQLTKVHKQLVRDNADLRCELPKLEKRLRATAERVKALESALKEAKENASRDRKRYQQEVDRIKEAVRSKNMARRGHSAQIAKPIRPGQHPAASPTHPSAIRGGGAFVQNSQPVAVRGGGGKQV

These are yes or no findings as the source states them, for the method shown. Binding seen in cells or lysates may run through a third protein. Some results given as binding are weak or reduced against the parent protein; the word gives no strength. Where a sequence is shown, tags or fusion partners need not be part of it.

The assay has as its target T1, PLEKHM2-frameshift (FS) proteoform, HA-tagged (HA-PLEKHM2-FS) (human).
T1 sequence: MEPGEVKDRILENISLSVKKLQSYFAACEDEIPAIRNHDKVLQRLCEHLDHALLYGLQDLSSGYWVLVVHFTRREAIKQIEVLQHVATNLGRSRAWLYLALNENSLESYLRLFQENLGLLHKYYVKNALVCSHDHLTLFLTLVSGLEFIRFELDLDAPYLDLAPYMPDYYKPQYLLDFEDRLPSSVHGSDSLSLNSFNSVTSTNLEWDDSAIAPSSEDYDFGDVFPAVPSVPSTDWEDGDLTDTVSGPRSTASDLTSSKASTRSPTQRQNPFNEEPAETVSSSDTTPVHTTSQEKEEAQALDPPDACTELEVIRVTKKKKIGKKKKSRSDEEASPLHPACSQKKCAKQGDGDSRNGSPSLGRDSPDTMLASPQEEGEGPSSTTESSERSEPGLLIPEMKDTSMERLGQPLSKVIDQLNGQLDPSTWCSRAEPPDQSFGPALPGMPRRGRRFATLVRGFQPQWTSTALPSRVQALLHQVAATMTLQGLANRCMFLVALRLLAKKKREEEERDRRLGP
The assay is described as follows: co-IP; HEK293T transfected with HA-tagged PLEKHM2 constructs; lysis in 10 mM tris-HCl pH 7.5, 150 mM NaCl, 0.5 mM EDTA, 0.5% NP-40; immunoprecipitation with HA antibody beads, 4°C, 2 h; immunoblot for KIF5B.

With “KIF5B (kinesin-1 heavy chain) (from UniProt P33176 1-963)”, the binding entry is on record as “binds”.
